For one compound, solubility results are on record in ChEMBL document CHEMBL2176955, “Discovery of the macrocycle 11-(2-pyrrolidin-1-yl-ethoxy)-14,19-dioxa-5,7,26-triaza-tetracyclo[19.3.1.1(2,6).1(8,12)]heptacosa-1(25),2(26),3,5,8,10,12(27),16,21,23-decaene (SB1518), a potent Janus kinase 2/fms-like tyrosine kinase-3 (JAK2/FLT3) inhibitor for the treatment of myelofibrosis and …” (J Med Chem, 2011).

A short description of the data set: physchem. The conditions noted are these: buffer, pH 7.

Structures are written as SMILES. Converted amounts (≈) assume the structure as drawn.

In the case of `Cc1cnc2nc1-c1cccc(c1)COCC=CCOCc1cc(ccc1OCCN1CCCC1)N2`, the concentration in solution (solubility) was 178 µg/mL (≈ 366 µM).

What is called solubility is how much of the substance goes into solution per volume. Higher therefore signals a readily soluble substance.
